{
  "source": "patent US11980689B2",
  "about": "(AVALYN PHARMA INC., priority 2013, dated 2024)",
  "origin": "cited, not measured here",
  "key": {"[1]": {"tested_on": "relapsed/refractory multiple myeloma", "settings": "bortezomib 1.3 mg/m2 vs high-dose dexamethasone; cited from earlier work"}, "[2]": {"tested_on": "metastatic melanoma", "settings": "human, in vivo; cited from earlier work"}, "[3]": {"settings": "cited from earlier work"}, "[4]": {"tested_on": "tumors", "settings": "after 56 days; cited from earlier work"}},
  "note": "At least one structure is not confirmed: it was looked up by name or label, or the drawing left a doubt.",
  "data": [
    {"smiles": "C[C@@H]1C[C@H]2[C@@H]3CCC4=CC(=O)C=C[C@]4(C)[C@@]3(F)[C@@H](O)C[C@]2(C)[C@@]1(O)C(=O)CO", "note": "[dexamethasone]", "values": [
      {"measurement": "1-year survival", "setting": "[1]", "value": 66, "unit": "%"},
      {"measurement": "median TTP", "setting": "[1]", "value": 3.5, "unit": "months"}
    ]},
    {"smiles": "CN(C)/N=N/c1[nH]cnc1C(N)=O", "note": "[dacarbazine]", "values": [
      {"measurement": "response rate to treatment", "setting": "[2]", "value": "7-12%"}
    ]},
    {"smiles": "CC(=O)N[C@@H](CS)C(=O)O", "note": "[ACC]", "values": [
      {"measurement": "pH", "setting": "[3]", "value": 2.2}
    ]},
    {"smiles": "CCCS(=O)(=O)Nc1ccc(F)c(C(=O)c2c[nH]c3ncc(-c4ccc(Cl)cc4)cc23)c1F", "note": "[Vemurafenib]", "values": [
      {"measurement": "response rate to treatment", "setting": "[2]", "value": 53, "unit": "%"},
      {"measurement": "tumors that develop resistance", "setting": "[2]", "value": 20, "unit": "%"},
      {"measurement": "tumors that become resistant", "setting": "[4]", "value": 20, "unit": "%"}
    ]}
  ]
}
